Results are given in words; binding and its absence hold for the method and conditions named. In cells and extracts the contact can be indirect. A result given as binding can be weak or reduced; the word gives no strength. Where a sequence is shown, tags or fusion partners need not be part of it.
Target: T1, GFP-Bucky ball (zebrafish) (UniProt H0WFA5)
T1 sequence: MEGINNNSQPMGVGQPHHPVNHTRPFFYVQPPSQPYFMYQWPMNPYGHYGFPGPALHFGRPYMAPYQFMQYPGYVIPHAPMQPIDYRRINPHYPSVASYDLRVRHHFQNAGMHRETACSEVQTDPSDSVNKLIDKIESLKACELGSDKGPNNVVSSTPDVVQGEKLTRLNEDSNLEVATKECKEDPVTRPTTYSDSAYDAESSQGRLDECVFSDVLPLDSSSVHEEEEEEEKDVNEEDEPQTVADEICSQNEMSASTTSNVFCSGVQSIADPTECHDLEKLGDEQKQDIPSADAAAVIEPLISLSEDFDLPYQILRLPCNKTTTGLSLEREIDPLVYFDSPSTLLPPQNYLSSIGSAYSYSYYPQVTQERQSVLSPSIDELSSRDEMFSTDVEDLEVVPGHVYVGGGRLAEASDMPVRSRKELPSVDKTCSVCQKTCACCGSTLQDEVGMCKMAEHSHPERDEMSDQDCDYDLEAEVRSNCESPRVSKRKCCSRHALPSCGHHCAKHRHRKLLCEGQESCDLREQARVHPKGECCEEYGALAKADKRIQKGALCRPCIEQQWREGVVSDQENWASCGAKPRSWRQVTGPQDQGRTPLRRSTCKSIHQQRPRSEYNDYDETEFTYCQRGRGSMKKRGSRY
Assay: co-IP; HEK293 cells co-transfected with pCS3-MT-Rbpms constructs and pCS3-GFP-Buc (or pCS3-GFP control); IP from the supernatant of cell lysates (including mRNA) with anti-GFP 3E6 antibody and Protein G magnetic beads; blotted with anti-Myc and anti-GFP

Row | binding | Substance
1 | binds | Myc-tagged Rbpms2bΔC-terminus (zebrafish) (domain or fragment)
2 | binds | Myc-tagged Rbpms2bΔRNP1 (zebrafish)
3 | binds | Myc-tagged zebrafish Rbpms2b
4 | binds | Myc-tagged zebrafish Rbpms (Rbpms1)

Source: article PMC6049948
